Assay results from paper PMC7819943, “Rice protein-binding microarrays: a tool to detect cis-acting elements near promoter regions in rice”.
The list shows a part of the results.

By UniProt entry, the sequences of proteins in these tests, tags left out.
UniProt Q0JBA9, entry or part of it: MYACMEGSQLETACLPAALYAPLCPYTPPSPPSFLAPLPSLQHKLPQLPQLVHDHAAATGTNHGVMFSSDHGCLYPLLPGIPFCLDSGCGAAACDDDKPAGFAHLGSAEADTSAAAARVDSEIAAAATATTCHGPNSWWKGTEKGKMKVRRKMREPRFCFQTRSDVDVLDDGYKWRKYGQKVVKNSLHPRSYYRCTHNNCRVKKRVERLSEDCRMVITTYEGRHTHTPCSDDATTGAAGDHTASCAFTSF

Each sequence was assayed against OsWRKY34 (Oryza sativa, UniProt Q0JBA9 1-250) (assay: protein-binding microarray (RPBM); PBS, 2% BSA, 51.3 ng/ul salmon testes DNA, 50 uM zinc acetate, 200 nM TF, 25 C, 1 h; high values mean tight binding). Conditions: protein: recombinant; tags: N-terminal polyhistidine and DsRed monomer fusion (pET32a); label: CyDye5-dUTP incorporated in the synthesized complementary strand; 3' TTTTT single-stranded linker to array surface; dsDNA, one strand shown.
How it was run: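 Ni–NTA purification followed expression in E. coli BL21-CodonPlus of transcription factors fused N-terminally to a polyhistidine tag and DsRed. At 200 nM in PBS with 2% BSA, salmon testes DNA and 50 µM zinc acetate, the protein was incubated for 1 h at 25 °C with a custom Agilent array that had been primer-extended with Cy5-dUTP and blocked with 2% BSA. After washing, the array was read on an Axon 4000B scanner. The binding signal is per-feature fluorescence intensity in arbitrary units.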
In the case of “ATGCTTATTATTCACCGAGCACTTTCATCACTTCGGAAGTCGGAGTCACCTAGTGCAG”, the binding signal is reported as 8180 fluorescence intensity (a.u.).
For “TTTAGCTGCATGTGGATGTGTATACACATTGTGTGGTTTTCGGAGTCACCTAGTGCAG”, the binding signal was 8870 fluorescence intensity (a.u.).
With “CGCTGCGCTCTCCTTCATCGCCATCGTTGTTCGCCCTACGCGGAGTCACCTAGTGCAG” the binding signal was 8190 fluorescence intensity (a.u.).
For “TGAATCCATGGTGGGTCGTTGGCCAACTCCTCCATTTCTCCGGAGTCACCTAGTGCAG”, the binding signal was 8970 fluorescence intensity (a.u.).
In the case of “GTGCACTGGTACGTGGGCGAAGGGATGGAGGAAGGGGAGTCGGAGTCACCTAGTGCAG”, the binding signal is reported as 9180 fluorescence intensity (a.u.).
In the case of “GCCTGCATCTCGCTGATTGTGATGCTGCTGTCCGCTTCCGCGGAGTCACCTAGTGCAG”, the binding signal is reported as 9180 fluorescence intensity (a.u.).
With “CTTCTGCTCTCTAGCTAGCCTTCTTCCTATTGGAAGCTTCCGGAGTCACCTAGTGCAG” the binding signal was 9230 fluorescence intensity (a.u.).
With “ATGAATTAGGTGTGGTTCTCTTTAATCTGTTATTAGTCATCGGAGTCACCTAGTGCAG” the binding signal was 11000 fluorescence intensity (a.u.).
For “CAATGATATCTCTACTAGTCATCTCAGCGGCCGGTGGCACCGGAGTCACCTAGTGCAG”, the binding signal was 8900 fluorescence intensity (a.u.).
In the case of “CCCTGCATTCCCGCGTATTCTCCTCATCCATCCATCATCCCGGAGTCACCTAGTGCAG”, the binding signal is reported as 12800 fluorescence intensity (a.u.).
For “TTACCTGTAGGCCGCACGCACGTTGCTCTCGCCTCTCGCACGGAGTCACCTAGTGCAG”, the binding signal was 11000 fluorescence intensity (a.u.).
With “TCACCACCACGCAATTTGCCAATTCATGCCCGTCTCGTCGCGGAGTCACCTAGTGCAG” the binding signal was 8540 fluorescence intensity (a.u.).
For “AGTGTCATTTATCATGAGAGTTATTGGTTATGTGGGTTTACGGAGTCACCTAGTGCAG”, the binding signal was 9850 fluorescence intensity (a.u.).
For “GTTTCTTTTTAAATTTGGACCTCTCCGCTCTCCGGCCCAACGGAGTCACCTAGTGCAG”, the binding signal was 9420 fluorescence intensity (a.u.).
With “AAAATCCCATACCAATTACACCCTAGCATACATACATTTTCGGAGTCACCTAGTGCAG” the binding signal was 9640 fluorescence intensity (a.u.).
With “GGTTTAGGGTATTGAGGCCGGGGCGGCGGAGTGGAGAGGACGGAGTCACCTAGTGCAG” the binding signal was 13500 fluorescence intensity (a.u.).
For “GCAACCACCGCCCGCTCTCATCCCTTCACAAGTGCGGCGCCGGAGTCACCTAGTGCAG”, the binding signal was 8770 fluorescence intensity (a.u.).
For “CCGTCGCCGCCGTCGTCTCCATCTCCGGCGTCACCTCCGTCGGAGTCACCTAGTGCAG”, the binding signal was 9150 fluorescence intensity (a.u.).
With “TTGCACATCCTTCTAGCTTCATAGTTTGTGTTTTATGTCACGGAGTCACCTAGTGCAG” the binding signal was 8430 fluorescence intensity (a.u.).
In the case of “ATGGGGCGGGTGCCGTGCTGCGAGAAGGACAACGTGAAGCCGGAGTCACCTAGTGCAG”, the binding signal is reported as 8380 fluorescence intensity (a.u.).
For “ATTCTGATTCTTTTCTTGTGCTGCAATTCCTTTCCTAGTACGGAGTCACCTAGTGCAG”, the binding signal was 12000 fluorescence intensity (a.u.).
“CTTCCCCTGATGATTGGCCTGAAATGGATGCTCAGGAATTCGGAGTCACCTAGTGCAG” was tested, and the binding signal was 9120 fluorescence intensity (a.u.).
“AACGTACCTCAATATCCATACTATCCGGTCTACAGGTATCCGGAGTCACCTAGTGCAG” was tested, and the binding signal was 9150 fluorescence intensity (a.u.).
In the case of “TCATTTCGTGCTGCATTTTTTCACATGCATCCCTGACACGCGGAGTCACCTAGTGCAG”, the binding signal is reported as 10300 fluorescence intensity (a.u.).
“TGCACACCCTATCCCGAAATACACATCACGCTCACGGGGCCGGAGTCACCTAGTGCAG” was tested, and the binding signal was 8090 fluorescence intensity (a.u.).
“GTCAATTTGGTACCTTGTTCTGCTTTAAACTCCATCACTACGGAGTCACCTAGTGCAG” was tested, and the binding signal was 11700 fluorescence intensity (a.u.).
“GTGGCTGGGAGGATATTTTGGGCTGGTGGTTTGTTGATGTCGGAGTCACCTAGTGCAG” was tested, and the binding signal was 13000 fluorescence intensity (a.u.).
For “CTCGTCTGTTTTGTTTTCCCCTCCGACTCCGACTCCGATCCGGAGTCACCTAGTGCAG”, the binding signal was 8180 fluorescence intensity (a.u.).
For “AGACACTCTGGTGCTTTGTTTCTATTTTATTTGGGTGGGGCGGAGTCACCTAGTGCAG”, the binding signal was 13000 fluorescence intensity (a.u.).
In the case of “CCCACCCCACCACCCACCGGCCCCACACGTCAGCTATACACGGAGTCACCTAGTGCAG”, the binding signal is reported as 9860 fluorescence intensity (a.u.).
“TCTTCTAATATATTGACGTGCAATCCTTTTACGCGTTCGCCGGAGTCACCTAGTGCAG” was tested, and the binding signal was 8070 fluorescence intensity (a.u.).
With “CGACCACCTTTTCACCTCCGGATCACCACCGCAATGGCTCCGGAGTCACCTAGTGCAG” the binding signal was 9340 fluorescence intensity (a.u.).
“GTGAGCTTTATTTATCTTTTGTCAATAATCATTTTCTCCACGGAGTCACCTAGTGCAG” was tested, and the binding signal was 8880 fluorescence intensity (a.u.).
For “GATCGGTTCTTGCCTTCTTGGGCTGCTTCAGGGGCGTGGGCGGAGTCACCTAGTGCAG”, the binding signal was 10900 fluorescence intensity (a.u.).
With “CAAATCGAATCGACCGCGAACACCCTCGTTTCCACCCGCGCGGAGTCACCTAGTGCAG” the binding signal was 9080 fluorescence intensity (a.u.).
In the case of “AGTTTAATTTTTCTATGGTTGGTTCTTGTGTGCTCCTAAGCGGAGTCACCTAGTGCAG”, the binding signal is reported as 10500 fluorescence intensity (a.u.).
With “ACACTAACTCCGTGTCTCCGCACATCCTTCATTCGCCCACCGGAGTCACCTAGTGCAG” the binding signal was 11200 fluorescence intensity (a.u.).
For “TTGTTTTTTTCTTTTTTTCGCCCGGATTTTTTTTGGATCGCGGAGTCACCTAGTGCAG”, the binding signal was 9400 fluorescence intensity (a.u.).
For “GCATATTTATTCTTTTTCTTAACTTGAATACGTTGAATTTCGGAGTCACCTAGTGCAG”, the binding signal was 9410 fluorescence intensity (a.u.).
“TCGTCACCGGCCGTCCCTCTCCGTCTGCTACGTTAGCTTGCGGAGTCACCTAGTGCAG” was tested, and the binding signal was 8140 fluorescence intensity (a.u.).
With “GGGTTAGATGCTTATCGCGCCATAAGGCGCGTCAATTTTCCGGAGTCACCTAGTGCAG” the binding signal was 9510 fluorescence intensity (a.u.).
“TCTGCTCGATCCCGCCTTTGCCTGCGGATTCCCACCCTGACGGAGTCACCTAGTGCAG” was tested, and the binding signal was 10600 fluorescence intensity (a.u.).
